Non-standard residues stand in square brackets, D forms with d. Residues, ends and D or L forms follow the SMILES beside them.
Test system: HEK293 cells
Type: cell-based, human
Conditions: HEK293 vs A. baumannii
Description: Cell viability assays were performed by using the CellTiter 96® AQueous Non-Radioactive Cell Proliferation Assay (Promega, United States), in which 3-(4,5-dimethylthiazol-2-yl)-5-(3-carboxymethoxyphenyl)-2-(4-sulfophenyl)-2H-tetrazolium salt (MTS) can be reduced to purple-colored formazan by intact cells. […] The test peptide was dissolved in water and filtered through a 0.2-μm filter. The peptide concentration was quantitated by the UV280 to make a 5,120 μg/mL stock solution and then serially diluted in serum-free DMEM. On the second day, the medium was replaced with 100 μL of serum-free DMEM containing different peptide concentrations and incubated for 1 or 24 h. Serum-free DMEM without peptide was used as a negative control and medium containing 1% Triton X-100 was used as a positive control. One milligram of MTS powder was dissolved in 0.5 mL of Dulbecco’s phosphate-buffered saline (DPBS). The MTS solution was mixed with one-twentieth of a phenazine methosulfate (PMS) solution ([…]). To each well, 20 μL of the MTS/PMS solution was added. After 3 h, the absorbance was measured with an Infinite M1000 pro (Tecan Austria GmbH, Austria) at a wavelength of 490 nm. Cell viability was calculated using the following equation. Cellviability=[(A-Ap)/(An-Ap)]×100% A is the UV490 of the peptide-treated sample An is the UV490 of the sample without peptide (negative control) Ap is the UV490 of the Triton-treated sample (positive control)

With Ac-WKKLKKLLKKL-NH2 [pepD3] the “Selectivity index (SI) between HEK293 cells and A. baumannii” value (“Selectivity index” for short) was 8.5.
In the case of CC(=O)N[C@@H](Cc1c[nH]c2ccccc12)C(=O)N[C@H](CCCCN)C(=O)N[C@H](CCCCN)C(=O)N[C@H](CC(C)C)C(=O)N[C@H](CCCCN)C(=O)N[C@H](CCCCN)C(=O)N[C@H](CC(C)C)C(=O)N[C@H](CC(C)C)C(=O)N[C@H](CCCCN)C(=O)N[C@H](CCCCN)C(=O)N[C@H](CC(C)C)C(=O)N[C@H](CCCCN)C(=O)N[C@H](CCCCN)C(=O)N[C@H](CC(C)C)C(N)=O [pepdD2, Ac-Wkklkkllkklkkl-NH2] (Ac-W[dK][dK][dL][dK][dK][dL][dL][dK][dK][dL][dK][dK][dL]-NH2), the “Selectivity index” value is reported as 2.6.
In the case of Ac-WKKLKKLLKKLKKL-NH2 [pepD2], the “Selectivity index” value is reported as 4.7.
